Source: PubChem BioAssay AID720505 (Drosophila RNAi Screening Center, 2013)
Aim: 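Genes needed for store-operated calcium entry in fly cells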 (primary screen). System: Drosophila S2R+ cells. Reagents: long dsRNA against Drosophila genes. Conditions: thapsigargin (2 µM) in calcium-free buffer to empty internal stores, then 2 mM calcium added back. Read-out: 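Stores emptied by 2 µM thapsigargin without calcium, then 2 mM calcium re-added; fluo-4 fluorescence followed by FLIPR in 384-well plates, per-well averaged endpoint, raw; two screen passes, some wells retested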. Direction: calcium signal: higher = more calcium entry after store depletion. Hit rule: 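Knock-downs counted as hits when calcium entry dropped relative to STIM1 positive and Rho1 negative controls present on each plate; roughly 1500 genes called, with reductions of differing size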. Calls: active = called as lowering calcium entry; inactive = not called.
In all, the deposit lists about 20,000 reagents; this is a random part of those that have a named target and a result. Over the whole deposit, about 2,100 (10%) got an active call. 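Raw plate signals without normalisation; calls rest on control-based scores that were not deposited; replicate 2 separates called from uncalled poorly.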 Names joined by + are all predicted targets of the reagent. The record does not give: the amount of reagent, the time to read-out.

Against CG10274 [DRSC09716], the values are calcium signal, replicate 1 = 120; calcium signal, replicate 2 = 138; inactive.
l(1)G0289 [DRSC18215] showed calcium signal, replicate 1 = 129; calcium signal, replicate 2 = 135; inactive.
For CG34175 [DRSC00424], the values are calcium signal, replicate 1 = 70.7; calcium signal, replicate 2 = 91.1; active.
For CG3632 [DRSC19137] the deposit lists calcium signal, replicate 1 = 79.4; calcium signal, replicate 2 = 108; inactive.
CG3632 [DRSC19871] gave calcium signal, replicate 1 = 131; calcium signal, replicate 2 = 114; inactive.
After knock-down of CG18586 [DRSC10325], the screen gave calcium signal, replicate 1 = 103; calcium signal, replicate 2 = 84.8; inactive.
Silencing of CG12539 [DRSC19470] came out at: calcium signal, replicate 1 = 125; calcium signal, replicate 2 = 147; inactive.
Against CG13712 [DRSC08321], the values are calcium signal, replicate 1 = 80.6; calcium signal, replicate 2 = 61.2; active.
Silencing of CG14540 [DRSC14884] gave: calcium signal, replicate 1 = 280; calcium signal, replicate 2 = 144; inactive.

Taken from above.
Entry for CG13712 [DRSC08321] under “calcium signal, replicate 2”: 61.2
Result for CG3632 [DRSC19871] under “calcium signal, replicate 1”: 131
For “Call”, CG3632 [DRSC19137] has inactive

More records follow:
After knock-down of HipHop [DRSC10734], the screen gave calcium signal, replicate 1 = 101; calcium signal, replicate 2 = 81.4; inactive.
rtet [DRSC14160] scored calcium signal, replicate 1 = 194; calcium signal, replicate 2 = 396; inactive.
After knock-down of comm2 [DRSC09881], the screen gave calcium signal, replicate 1 = 109; calcium signal, replicate 2 = 120; inactive.
For comm2 [DRSC10877] the deposit lists calcium signal, replicate 1 = 86; calcium signal, replicate 2 = 121; inactive.
Against CG13285 [DRSC09960], the entry reads calcium signal, replicate 1 = 93.2; calcium signal, replicate 2 = 74.9; inactive.
Depletion of Arp3 [DRSC09669] resulted in: calcium signal, replicate 1 = 114; calcium signal, replicate 2 = 102; inactive.
Cpr66D [DRSC10640] showed calcium signal, replicate 1 = 110; calcium signal, replicate 2 = 89.8; inactive.
Silencing of Cpr66D [DRSC10646] resulted in: calcium signal, replicate 1 = 86.2; calcium signal, replicate 2 = 76.7; inactive.
Against Cpr66D [DRSC23178], the values are calcium signal, replicate 1 = 104; calcium signal, replicate 2 = 122; inactive.
After knock-down of Indy-2 + CG33934 [DRSC15685], the screen gave calcium signal, replicate 1 = 192; calcium signal, replicate 2 = 288; inactive.
Indy-2 + CG33934 [DRSC15686] gave calcium signal, replicate 1 = 109; calcium signal, replicate 2 = 101; inactive.
